In PMC2719869, “A Mouse Model for the Metabolic Effects of the Human Fat Mass and Obesity Associated FTO Gene” (PLoS Genetics, 2009):
These are yes or no findings as the source states them, for the method shown.

Biological target: C-terminal domain of murine FTO (residues 329-502) with I367A (mouse) (UniProt Q8BGW1)
Test: SEC; analytical gel filtration; 250 ug protein on Tricorn 10/300 GL, Superdex 75 (CmFTO, CmFTO I367A) or Superdex 200 (mFTO, mFTO I367A); 50 mM NaCl, 1 mM DTT, 50 mM Tris pH 7.5; calibrated with protein standards; monomer to dimer; both purified

B1: C-terminal domain of murine FTO (residues 329-502) with I367A (domain or fragment, UniProt Q8BGW1 329-502)
chain: DYILERCQLALQNVLNDSDDGDVSLKSFDPAVLKQGEEAHNEVEFEWLRQFWFQGNRYKLCTDWWCEPMTHLEGLWKKMESMTNAVLREVKREGLPVEQRSEILSAILVPLTVRQNLRKEWHARCQSRVVRTLPVQQKPDCRPYWEKDDPSMPLPFDLTDVVSELRGQLLEARS
binding: no binding (tested: 250 ug protein loaded)
